According to US9962447B2, “Supramolecular aggregates comprising maleimido cores” (UFPEPTIDES S.R.L., priority 2013, dated 2018):
Some of these results come from one statement about several compounds together.

Protein sequences, listed by entry. Tags and fused reporters are not part of them.
UniProt P35372, whole entry: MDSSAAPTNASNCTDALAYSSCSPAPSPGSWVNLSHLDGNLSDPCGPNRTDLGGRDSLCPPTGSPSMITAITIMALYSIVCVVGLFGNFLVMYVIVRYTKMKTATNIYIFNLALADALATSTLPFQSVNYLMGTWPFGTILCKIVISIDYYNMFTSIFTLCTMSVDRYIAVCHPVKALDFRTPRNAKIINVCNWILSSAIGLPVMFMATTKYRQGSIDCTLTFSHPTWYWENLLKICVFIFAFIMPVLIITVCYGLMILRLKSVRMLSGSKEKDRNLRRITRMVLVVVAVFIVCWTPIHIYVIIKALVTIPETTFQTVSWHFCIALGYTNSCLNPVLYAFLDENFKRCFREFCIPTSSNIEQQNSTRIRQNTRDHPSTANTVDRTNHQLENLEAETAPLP

Legend:
[1] = system: CHO cells expressing the Gαqi5 protein but not the NOP receptor; experiment: Calcium mobilization in CHO cells expressing Gαqi5 but not the NOP receptor; type: cell-based; settings: CHO cells with Gαqi5 but without NOP receptor; data not shown
MOP receptor = MOP receptor (Homo sapiens, UniProt P35372); experiment: Calcium mobilization in CHO cells expressing MOP receptor and Gαqi5; type: cell-based
Description: Cell cultures were kept at 37° C. in 5% CO2 humidified air. In all cases experimental cultures were free from selection agents (hygromycin B, G418). When confluence was reached (3-4 days), cells were sub-cultured as required using trypsin EDTA and used for experimentation. Cells were seeded at a density of 50,000 cells/well into 96-well black, clear-bottom plates. After 24 hours incubation the cells were loaded with medium supplemented with 2.5 mM probenecid, 3 μM of the calcium sensitive fluorescent dye Fluo-4 AM and 0.01% pluronic acid, for 30 min at 37° C. Afterwards the loading solution was aspirated and 100 μl/well of assay buffer: Hank's Balanced Salt Solution (HBSS) supplemented with 20 mM HEPES, 2.5 mM probenecid and 500 μM Brilliant Black (Aldrich) was added. […] On-line additions were carried out in a volume of 50 μl/well. To facilitate drug diffusion into the wells in antagonist type experiments, the present studies were performed at 37° C. and three cycles of mixing (25 μl from each well moved up and down 3 times) were performed immediately after antagonist injection to the wells.
Four mice were monitored in parallel. […] Animals locomotion was recorded for 60 min.

B1: PWT2-N/OFQ: supramolecular aggregate of maleimido core PWT2 with nociceptin/orphanin FQ, made from PWT2 and [Cys18]N/OFQ-NH2 by thiol-Michael addition (conjugate)
peptide: SCQRDCLTCQEKLHPALDSFDLEVCILECEEKVFPSPLWTPCTKVMARSSWQLSPAAPEHVAAALYQPRASEMQHLRRMPRVRSLFQEQEEPEPGMEEAGEMEQKQLQKRFGGFTGARKSARKLANQKRFSEFMRQYLVLSMQSSQRRRTLHQNGNVC
calcium mobilization, inactive up to [1]: > 1 µM | calcium mobilization, inactive up to (MOP receptor): > 1 µM
